From the supplement of paper PMC11542785
Counter-ions that a name gives are not always drawn. The list shows a part of the results. Most values come without repeats; read them as rough. Bridge positions count the residues as written; N and C are the ends. Square brackets hold non-standard residues; d marks the D form. Peptide text beside a SMILES is read from it. * marks the point of attachment. Ileψ(thiazoline)Cys = CC[C@H](C)[C@H](N)C1=N[C@H](C(=O)*)CS1; dOrn = NCCC[C@@H](N)C(=O)O

Test system: Drosophila melanogaster DPAGT1 (Alg7) RNAi eye model
Test: eye size Z-score vs DMSO-treated DPAGT1 model flies; higher = larger eye (suppression of DPAGT1 phenotype)
Conditions: 5 uM

SMILES	eye size Z-score (female)	eye size Z-score
Cc1cccc(C)c1NC(=O)C(C)N (stereo not drawn) [Tocainide hydrochloride]	0.09	–
Cc1ccccc1C(=O)Nc1ccc(C(=O)N2CCCC(O)c3cc(Cl)ccc32)c(C)c1 (stereo not drawn) [Tolvaptan]	–	0.61
Cc1cccc(C)c1NC(=O)CC12CCCN1CCC2 [Pilsicainide Hydrochloride]	–	0.5
Nc1nc2[nH]cnc2c(=S)[nH]1 [Tioguanine]	–	1.53
CC(C)c1cc2c(cc1S(=O)(=O)O)[C@@]1(C)CCC[C@@](C)(C(=O)O)[C@@H]1CC2 [Ecabet sodium]	–	0.02
CN(C)C(=O)C(CCN1CCC(O)(c2ccc(Cl)cc2)CC1)(c1ccccc1)c1ccccc1 [Loperamide hydrochloride]	–	0.1
O=C(OCC(O)CO)c1ccccc1Nc1ccnc2cc(Cl)ccc12 (stereo not drawn) [Glafenine hydrochloride]	–	-1.09
NC(=O)c1cn(Cc2c(F)cccc2F)nn1 [Rufinamide]	–	0.69
CC(C(=O)O)c1ccc(-c2ccccc2)c(F)c1 (stereo not drawn) [Flurbiprofen]	–	-0.88
C[C@H]1O[C@@H](O[C@H]2[C@@H](O)C[C@H](O[C@H]3[C@@H](O)C[C@H](O[C@H]4CC[C@@]5(C)[C@H](CC[C@@H]6[C@@H]5C[C@@H](O)[C@]5(C)[C@@H](C7=CC(=O)OC7)CC[C@]65O)C4)O[C@@H]3C)O[C@@H]2C)C[C@H](O)[C@@H]1O [Digoxin]	–	0.73
COc1cc([S+](C)[O-])ccc1-c1nc2cccnc2[nH]1 (stereo not drawn) [Sulmazole]	–	0.1
NC[C@@H]1O[C@H](O[C@H]2[C@@H](O)[C@H](O[C@@H]3[C@@H](O)[C@H](N)C[C@H](N)[C@H]3O[C@H]3O[C@H](CO)[C@@H](O)[C@H](O)[C@H]3N)O[C@@H]2CO)[C@H](N)[C@@H](O)[C@@H]1O [Paromomycin sulfate]	–	0.19
Nc1nc(CC(=O)Nc2ccc(CCNC[C@H](O)c3ccccc3)cc2)cs1 [Mirabegron]	–	-1.6
COc1ccccc1OCC(O)CO (stereo not drawn) [Guaifenesin]	–	-0.01
CC(=O)[C@H]1CC[C@H]2[C@@H]3C=CC4=CC(=O)CC[C@@]4(C)[C@@H]3CC[C@]12C [Dydrogesterone]	–	-0.34
CN1[C@@H]2CC[C@H]1C[C@@H](OC(=O)c1c[nH]c3ccccc13)C2 [Tropisetron hydrochloride]	–	-1.03
Cc1cccc(C)c1OCC(C)N (stereo not drawn) [Mexiletine hydrochloride]	–	1.2
N#Cc1cc(NC(=O)C(=O)O)c(Cl)c(NC(=O)C(=O)O)c1 [Lodoxamide]	–	0.96
COc1ccc(/C=C/C(=O)Nc2ccccc2C(=O)O)cc1OC [Tranilast]	-0.94	–
CCOC(=O)C1=C(COCCN)NC(C)=C(C(=O)OC)C1c1ccccc1Cl (stereo not drawn) [Amlodipine]	–	-0.16
Oc1c(Cl)cc(Cl)c(Cl)c1Cc1c(O)c(Cl)cc(Cl)c1Cl [Hexachlorophene]	–	-0.7
Cc1c(N(C)C)c(=O)n(-c2ccccc2)n1C [Amidopyrine]	–	0.37

3 entries already listed, arranged by molar mass, low to high:
SMILES	eye size Z-score (female)	eye size Z-score
Nc1nc2[nH]cnc2c(=S)[nH]1 [Tioguanine]	–	1.53
COc1ccccc1OCC(O)CO (stereo not drawn) [Guaifenesin]	–	-0.01
CC(=O)[C@H]1CC[C@H]2[C@@H]3C=CC4=CC(=O)CC[C@@]4(C)[C@@H]3CC[C@]12C [Dydrogesterone]	–	-0.34

(listing goes on)

SMILES	eye size Z-score (female)	eye size Z-score
OC(CNCC(O)C1CCc2cc(F)ccc2O1)C1CCc2cc(F)ccc2O1 (stereo not drawn) [Nebivolol hydrochloride]	–	-0.27
CC(=O)NS(=O)(=O)c1ccc(NC(=O)c2ccccc2C(=O)O)cc1 [Phthalylsulfacetamide]	–	0.14
CC[C@H](C)[C@H](N)C1=N[C@H](C(=O)N[C@@H](CC(C)C)C(=O)N[C@H](CCC(=O)O)C(=O)N[C@H](C(=O)N[C@H]2CCCCNC(=O)[C@H](CC(N)=O)NC(=O)[C@@H](CC(=O)O)NC(=O)[C@H](Cc3cnc[nH]3)NC(=O)[C@@H](Cc3ccccc3)NC(=O)[C@H]([C@@H](C)CC)NC(=O)[C@@H](CCCN)NC2=O)[C@@H](C)CC)CS1 [Bacitracin] ({Ileψ(thiazoline)Cys}-L[dE]IK[dOrn]I[dF]H[dD]N; lactam 4-C)	–	-0.69
CN(C)CCN1C(=O)c2ccccc2N(C)c2ccccc21 [Dibenzepine hydrochloride]	–	-1.06
COc1ccc(OC)c(C(O)CNC(=O)CN)c1 (stereo not drawn) [Midodrine hydrochloride]	–	0.71
CN(C(=O)C(Cl)Cl)c1ccc(OC(=O)c2ccco2)cc1 [Diloxanide furoate]	–	-0.67
Nc1ccn([C@H]2CC[C@@H](CO)O2)c(=O)n1 [Zalcitabine]	–	-0.33
CN(C)CCOC(C)(c1ccccc1)c1ccccn1 (stereo not drawn) [Doxylamine succinate]	–	1.14
CC(=O)c1ccc2c(c1)N(CCCN(C)C)c1ccccc1S2 [Acetopromazine maleate salt]	–	-0.68
C[C@@H](O)[C@H]1C(=O)N2C(C(=O)O)=C(S[C@@H]3CN[C@H](CNS(N)(=O)=O)C3)[C@H](C)[C@H]12 [Doripenem monohydrate]	–	0.21
CC(C)(C#N)c1cc(Cn2cncn2)cc(C(C)(C)C#N)c1 [Anastrozole]	–	-0.91
C(=C\c1ccccc1)/CN1CCN(C(c2ccccc2)c2ccccc2)CC1 [Cinnarizine]	–	-0.16
O=C(C1CCCCC1)N1CC(=O)N2CCc3ccccc3C2C1 (stereo not drawn) [Praziquantel]	–	-0.79
C[C@@H]1CCO[C@H]2Cn3cc(C(=O)NCc4ccc(F)cc4F)c(=O)c(O)c3C(=O)N12 [Dolutegravir]	–	-0.31
COc1ccc2c(c1)c(CC(=O)O)c(C)n2C(=O)c1ccc(Cl)cc1 [Indomethacin]	–	-0.49
CN1CCC(=C2c3ccccc3CCc3cccnc32)CC1 [Azatadine maleate]	–	0.69
Nc1nc2ccc(OC(F)(F)F)cc2s1 [Riluzole hydrochloride]	0.5	–
CC(C)(C)NCC(O)COc1cccc2c1CCC(=O)N2 (stereo not drawn) [Carteolol hydrochloride]	–	-0.45
C=C1c2c(Cl)ccc(O)c2C(=O)C2=C(O)[C@]3(O)C(=O)C(C(N)=O)=C(O)[C@@H](N(C)C)[C@@H]3[C@@H](O)[C@H]12.O=C(O)c1cc(S(=O)(=O)O)ccc1O [Meclocycline sulfosalicylate]	–	-0.34
CC(=O)NCCCS(=O)(=O)O [Acamprosate calcium]	–	-0.75
CCOC(=O)O[C@]1(C(=O)COC(=O)CC)CC[C@H]2[C@@H]3CCC4=CC(=O)C=C[C@]4(C)[C@H]3[C@@H](O)C[C@@]21C [Prednicarbate]	–	0.29
